Results are given in words; binding and its absence hold for the method and conditions named. Some results given as binding are weak or reduced against the parent protein; the word gives no strength.
How the values were obtained:
[1] = target: human CD137 ECD-mIgG2a (human); assay: ELISA on coated human CD137 ECD-mIgG2a, detection with HRP anti-human IgG (competition ELISA with CD137 ligand)
[2] = target: human CD137 ectodomain (amino acids 24-162; C121S, N138D, N149Q) for crystallization (human) (UniProt Q07011); assay: complex formed from purified proteins, purified by gel filtration and crystallized

The chains behind the UniProt entries cited, without tags or fusion partners. Where a name states a change or a piece, a line headed by the entry shows the natural chain unless it says otherwise.
UniProt Q07011: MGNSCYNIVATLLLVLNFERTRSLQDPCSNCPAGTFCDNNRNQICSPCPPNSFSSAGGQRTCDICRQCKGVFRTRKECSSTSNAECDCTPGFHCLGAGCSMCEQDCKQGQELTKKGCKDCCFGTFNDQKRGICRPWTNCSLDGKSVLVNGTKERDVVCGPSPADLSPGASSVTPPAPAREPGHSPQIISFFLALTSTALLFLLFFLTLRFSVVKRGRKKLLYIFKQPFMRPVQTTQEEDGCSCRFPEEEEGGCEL

binding [1] | binding [2] | Binder
binds | – | BGA-5623 (IgG4) (Fc fusion) EVQLLESGGGLVQPGGSLRLSCAASGFTVSAEDVGWVRQAPGKGLEWVSAILDKGGSTYYAESVKGRFTISRDNAKNTLYLQMSSLRAEDTAVYYCARIVYHAGGGVTFDTRGQGTQVTVSSESKYGPPCPPCPAPEFLGGPSVFLFPPKPKDTLMISRTPEVTCVVVDVSQEDPEVQFNWYVDGVEVHNAKTKPREEQFNSTYRWSVLTVLHQDWLNGKEYKCKVSNKGLPSSIEKTISKAKGQPREPQVYTLPPSQEEMTKNQVSLTCLVKGFYPSDIAVEWESNGQPENNYKTTPPVLDSDGSFFLYSRLTVDKSRWQEGNVFSCSVMHEALHNHYTQKSLSLSLGK
– | binds | VHH (BGA-5623) (VHH) VHH: EVQLLESGGGLVQPGGSLRLSCAASGFTVSAEDVGWVRQAPGKGLEWVSAILDKGGSTYYAESVKGRFTISRDNAKNTLYLQMSSLRAEDTAVYYCARIVYHAGGGVTFDTRGQGTQVTVSS

From patent US20240209106A1
